# Measurements as given in the supplement of paper PMC8728848.
# This is one part of the list.
# B1: EULS2 M1 (Oryza sativa) (protein)
# chain: MVYCRANPNYAMTARNGAVVLAPANPKDEYQHWIKDMRWSTSIKDEEGYPAFALVNKATGQAIKHSLGQSHPVRLVPYNPEVMDESVLWTESRDVGNGFRCIRMVNNIYLNFDAFHGDKYHGGVRDGTDIVLWKLCEGDNQRWKIQPYYILEQKLISEEDLNSAVDHHHHHH
# What was measured:
# Test in all cases: glycan array binding signal (z-score within array); higher = stronger binding
# Settings in all cases: glycan notation: IUPAC condensed, linker removed
# [1] = biological target: Gal(b1-4)GlcNAc(b1-2)Man(a1-6)[Man(a1-3)]Man(b1-4)GlcNAc(b1-4)GlcNAc
# Procedure, shortened: (§1)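 Glycan array binding is given as a within-array Z-score, which can be read as non-binding when negative. The arrays, 3228 of them, came from the Consortium for Functional Glycomics database and were retained only where the protein sequence was available. Z-scores were averaged across arrays of the same protein sequence at different concentrations or buffers and across linkers.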
# [2] = biological target: Gal(b1-4)GlcNAc(b1-2)[Gal(b1-4)GlcNAc(b1-4)]Man(a1-3)[Gal(b1-4)GlcNAc(b1-2)Man(a1-6)]Man(b1-4)GlcNAc(b1-4)GlcNAc
# Procedure, shortened: as §1
# [3] = biological target: Gal(b1-4)GlcNAc(b1-2)[Gal(b1-4)GlcNAc(b1-4)]Man(a1-3)[Gal(b1-4)GlcNAc(b1-2)[Gal(b1-4)GlcNAc(b1-6)]Man(a1-6)]Man(b1-4)GlcNAc(b1-4)GlcNAc
# Procedure, shortened: as §1
# [4] = biological target: Gal(b1-4)GlcNAc(b1-2)[Gal(b1-4)GlcNAc(b1-4)]Man(a1-3)[GlcNAc(b1-4)][Gal(b1-4)GlcNAc(b1-2)Man(a1-6)]Man(b1-4)GlcNAc(b1-4)GlcNAc
# Procedure, shortened: as §1
# [5] = biological target: Gal(b1-4)GlcNAc(b1-2)[Gal(b1-4)GlcNAc(b1-4)]Man(a1-3)[GlcNAc(b1-4)][Gal(b1-4)GlcNAc(b1-2)[Gal(b1-4)GlcNAc(b1-6)]Man(a1-6)]Man(b1-4)GlcNAc(b1-4)GlcNAc
# Procedure, shortened: as §1
# [6] = biological target: Gal(b1-4)GlcNAc(b1-2)[Gal(b1-4)GlcNAc(b1-6)]Man(a1-6)[Gal(b1-4)GlcNAc(b1-2)Man(a1-3)]Man(b1-4)GlcNAc(b1-4)GlcNAc
# Procedure, shortened: as §1
# [7] = biological target: Gal(b1-4)GlcNAc(b1-2)[Gal(b1-4)GlcNAc(b1-6)]Man(a1-6)[Gal(b1-4)GlcNAc(b1-2)Man(a1-3)]Man(b1-4)GlcNAc(b1-4)[Fuc(a1-6)]GlcNAc
# Procedure, shortened: as §1
# [8] = biological target: Gal(b1-4)GlcNAc(b1-2)[Gal(b1-4)GlcNAc(b1-6)]Man(a1-6)[GlcNAc(b1-4)][Gal(b1-4)GlcNAc(b1-2)Man(a1-3)]Man(b1-4)GlcNAc(b1-4)GlcNAc
# Procedure, shortened: as §1
# [9] = biological target: Gal(b1-4)GlcNAc(b1-2)[Gal(b1-4)GlcNAc(b1-6)]Man(a1-6)[GlcNAc(b1-4)][Gal(b1-4)GlcNAc(b1-2)[Gal(b1-4)GlcNAc(b1-4)]Man(a1-3)]Man(b1-4)GlcNAc(b1-4)[Fuc(a1-6)]GlcNAc
# Procedure, shortened: as §1
# [10] = biological target: Gal(b1-4)GlcNAc(b1-3)Gal(b1-3)GalNAc
# Procedure, shortened: as §1
# [11] = biological target: Gal(b1-4)GlcNAc(b1-3)Gal(b1-3)GlcNAc
# Procedure, shortened: as §1
# [12] = biological target: Gal(b1-4)GlcNAc(b1-3)Gal(b1-4)Glc
# Procedure, shortened: as §1
# [13] = biological target: Gal(b1-4)GlcNAc(b1-3)Gal(b1-4)GlcNAc
# Procedure, shortened: as §1
# [14] = biological target: Gal(b1-4)GlcNAc(b1-3)Gal(b1-4)GlcNAc(b1-2)Man(a1-3)[Gal(b1-4)GlcNAc(b1-3)Gal(b1-4)GlcNAc(b1-2)Man(a1-6)]Man(b1-4)GlcNAc(b1-4)GlcNAc
# Procedure, shortened: as §1
# [15] = biological target: Gal(b1-4)GlcNAc(b1-3)Gal(b1-4)GlcNAc(b1-2)Man(a1-3)[Gal(b1-4)GlcNAc(b1-3)Gal(b1-4)GlcNAc(b1-2)Man(a1-6)]Man(b1-4)GlcNAc(b1-4)[Fuc(a1-6)]GlcNAc
# Procedure, shortened: as §1
# [16] = biological target: Gal(b1-4)GlcNAc(b1-3)Gal(b1-4)GlcNAc(b1-2)[Gal(b1-4)GlcNAc(b1-3)Gal(b1-4)GlcNAc(b1-6)]Man(a1-6)[Gal(b1-4)GlcNAc(b1-3)Gal(b1-4)GlcNAc(b1-2)Man(a1-3)]Man(b1-4)GlcNAc(b1-4)GlcNAc
# Procedure, shortened: as §1
# [17] = biological target: Gal(b1-4)GlcNAc(b1-3)Gal(b1-4)GlcNAc(b1-2)[Gal(b1-4)GlcNAc(b1-3)Gal(b1-4)GlcNAc(b1-6)]Man(a1-6)[Gal(b1-4)GlcNAc(b1-3)Gal(b1-4)GlcNAc(b1-2)Man(a1-3)]Man(b1-4)GlcNAc(b1-4)[Fuc(a1-6)]GlcNAc
# Procedure, shortened: as §1
# [18] = biological target: Gal(b1-4)GlcNAc(b1-3)Gal(b1-4)GlcNAc(b1-3)Gal(b1-4)GlcNAc
# Procedure, shortened: as §1
# [19] = biological target: Gal(b1-4)GlcNAc(b1-3)Gal(b1-4)GlcNAc(b1-3)Gal(b1-4)GlcNAc(b1-2)Man(a1-3)[Gal(b1-4)GlcNAc(b1-3)Gal(b1-4)GlcNAc(b1-3)Gal(b1-4)GlcNAc(b1-2)Man(a1-6)]Man(b1-4)GlcNAc(b1-4)GlcNAc
# Procedure, shortened: as §1
# [20] = biological target: Gal(b1-4)GlcNAc(b1-3)Gal(b1-4)GlcNAc(b1-3)Gal(b1-4)GlcNAc(b1-2)Man(a1-3)[Gal(b1-4)GlcNAc(b1-3)Gal(b1-4)GlcNAc(b1-3)Gal(b1-4)GlcNAc(b1-2)Man(a1-6)]Man(b1-4)GlcNAc(b1-4)[Fuc(a1-6)]GlcNAc
# Procedure, shortened: as §1
# [21] = biological target: Gal(b1-4)GlcNAc(b1-3)Gal(b1-4)GlcNAc(b1-3)Gal(b1-4)GlcNAc(b1-2)[Gal(b1-4)GlcNAc(b1-3)Gal(b1-4)GlcNAc(b1-3)Gal(b1-4)GlcNAc(b1-6)]Man(a1-6)[Gal(b1-4)GlcNAc(b1-3)Gal(b1-4)GlcNAc(b1-3)Gal(b1-4)GlcNAc(b1-2)Man(a1-3)]Man(b1-4)GlcNAc(b1-4)[Fuc(a1-6)]GlcNAc
# Procedure, shortened: as §1
# [22] = biological target: Gal(b1-4)GlcNAc(b1-3)Gal(b1-4)GlcNAc(b1-3)Gal(b1-4)GlcNAc(b1-3)Gal(b1-4)GlcNAc(b1-2)Man(a1-3)[Gal(b1-4)GlcNAc(b1-3)Gal(b1-4)GlcNAc(b1-3)Gal(b1-4)GlcNAc(b1-3)Gal(b1-4)GlcNAc(b1-2)Man(a1-6)]Man(b1-4)GlcNAc(b1-4)GlcNAc
# Procedure, shortened: as §1
binder,measurement,setting,value
B1,glycan array binding signal (z-score),[1],-0.073
same,glycan array binding signal (z-score),[2],-0.757
same,glycan array binding signal (z-score),[3],-0.584
same,glycan array binding signal (z-score),[4],0.188
same,glycan array binding signal (z-score),[5],-0.076
same,glycan array binding signal (z-score),[6],-0.141
same,glycan array binding signal (z-score),[7],-0.029
same,glycan array binding signal (z-score),[8],-0.54
same,glycan array binding signal (z-score),[9],-0.083
same,glycan array binding signal (z-score),[10],-1.06
same,glycan array binding signal (z-score),[11],-0.203
same,glycan array binding signal (z-score),[12],1.74
same,glycan array binding signal (z-score),[13],0.299
same,glycan array binding signal (z-score),[14],2.45
same,glycan array binding signal (z-score),[15],-0.039
same,glycan array binding signal (z-score),[16],1.89
same,glycan array binding signal (z-score),[17],-0.165
same,glycan array binding signal (z-score),[18],-0.376
same,glycan array binding signal (z-score),[19],-0.453
same,glycan array binding signal (z-score),[20],-0.45
same,glycan array binding signal (z-score),[21],-0.132
same,glycan array binding signal (z-score),[22],-0.1

# For convenience, part of the list above:
binder,measurement,setting,value
B1,glycan array binding signal (z-score),[17],-0.165
same,glycan array binding signal (z-score),[18],-0.376
